Experimental data from the supplement of paper PMC4604168 (melanoma cell lines).
The list shows a part of the results. Repeats are few or missing, and single values can be far off.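 Imaging used 1,536-well plates; nuclei positive for cleaved PARP by antibody were divided by total DNA-stained nuclei to yield the apoptosis fraction. Doses for screening kept most cells viable, and cell lines differ markedly in resting and induced cleaved-PARP levels.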

What was measured:
Assay in all cases: cleaved PARP positive nuclei fraction relative to DMSO control; melanoma cells; higher = more apoptosis
Conditions in all cases: library dose: low library concentration; 72 h
501Mel = tested on: 501Mel
A101D = tested on: A101D
A2058 = tested on: A2058
A375 = tested on: A375
C32 = tested on: C32
CBRC008 = tested on: CBRC008 (line from a melanoma biopsy)
CBRC013 = tested on: CBRC013 (line from a melanoma biopsy)
CBRC014 = tested on: CBRC014 (line from a melanoma biopsy)
CBRC016 = tested on: CBRC016 (line from a melanoma biopsy)
CBRC017 = tested on: CBRC017 (line from a melanoma biopsy)
COLO792 = tested on: COLO792
COLO800 = tested on: COLO800
COLO829 = tested on: COLO829
G361 = tested on: G361
IPC-298 = tested on: IPC-298
IST-MEL1 = tested on: IST-MEL1
LB2518-MEL = tested on: LB2518-MEL
LOXIMVI = tested on: LOXIMVI
MEL-HO = tested on: MEL-HO

Row | SMILES | cleaved PARP positive nuclei fraction (501Mel) [%] | cleaved PARP positive nuclei fraction (A101D) [%] | cleaved PARP positive nuclei fraction (A2058) [%] | cleaved PARP positive nuclei fraction (A375) [%] | cleaved PARP positive nuclei fraction (C32) [%] | cleaved PARP positive nuclei fraction (CBRC008) [%] | cleaved PARP positive nuclei fraction (CBRC013) [%] | cleaved PARP positive nuclei fraction (CBRC014) [%] | cleaved PARP positive nuclei fraction (CBRC016) [%] | cleaved PARP positive nuclei fraction (CBRC017) [%] | cleaved PARP positive nuclei fraction (COLO792) [%] | cleaved PARP positive nuclei fraction (COLO800) [%] | cleaved PARP positive nuclei fraction (COLO829) [%] | cleaved PARP positive nuclei fraction (G361) [%] | cleaved PARP positive nuclei fraction (IPC-298) [%] | cleaved PARP positive nuclei fraction (IST-MEL1) [%] | cleaved PARP positive nuclei fraction (LB2518-MEL) [%] | cleaved PARP positive nuclei fraction (LOXIMVI) [%] | cleaved PARP positive nuclei fraction (MEL-HO) [%]
1 | C[C@]1(c2nc3c(C(N)=O)cccc3[nH]2)CCCN1 [Veliparib] + NCC(=O)Nc1ccc(-n2nc(C(F)(F)F)cc2-c2ccc3c(ccc4ccccc43)c2)cc1 [OSU03012] (first compound 1.4 µM, partner dose 1 µM) | 954 | 64.6 | 69.1 | 3850 | 41.8 | 100 | 96.1 | 104 | 84.7 | 239 | 180 | 60.4 | 102 | 113 | 146 | 96.1 | 47.6 | 108 | 63.3
2 | COc1cc(Nc2ncc(F)c(Nc3ccc4c(n3)NC(=O)C(C)(C)O4)n2)cc(OC)c1OC [Tamatinib] + Cn1cncc1[C@@](N)(c1ccc(Cl)cc1)c1ccc2c(c1)c(-c1cccc(Cl)c1)cc(=O)n2C [tipifarnib] (first compound 0.4 µM, partner dose 0.01 µM) | 133 | 134 | 57.9 | 322 | 259 | 248 | 107 | 122 | 52.3 | 117 | 196 | 98.7 | 103 | 133 | 390 | 113 | 638 | 208 | 78
3 | C#Cc1cccc(Nc2ncnc3cc(OCCOC)c(OCCOC)cc23)c1 [erlotinib] + O=C(Nc1cccc(Cl)c1)Nc1ncc(CCNc2ncnc3ccsc23)s1 [SNS314] (first compound 0.8 µM, partner dose 0.0008 µM) | 76 | 97 | 95.4 | 54.1 | 140 | 66.1 | 102 | 190 | 23.5 | 120 | 149 | 58.9 | 45.3 | 65.7 | 91.8 | 56.8 | 215 | 27.7 | 109
4 | C=CCNC1=C2C[C@@H](C)C[C@H](OC)[C@H](O)[C@@H](C)/C=C(\C)[C@H](OC(N)=O)[C@@H](OC)/C=C\C=C(/C)C(=O)NC(=CC1=O)C2=O [Tanespimycin] + CC(C)(C)c1cnc(CSc2cnc(NC(=O)C3CCNCC3)s2)o1 [SNS-032] (first compound 0.002 µM, partner dose 0.01 µM) | 99.7 | 145 | 50 | 126 | 495 | 76 | 126 | 74.8 | 81.9 | 91.7 | 161 | 117 | 84.9 | 126 | 44.6 | 129 | 121 | 53.9 | 265
5 | C#Cc1cccc(Nc2ncnc3cc(OCCOC)c(OCCOC)cc23)c1 [erlotinib] + NC(=O)Nc1cc(-c2cccc(F)c2)sc1C(=O)N[C@H]1CCCNC1 [AZD7762] (first compound 0.8 µM, partner dose 0.02 µM) | 174 | 52.1 | 129 | 834 | 101 | 205 | 146 | 92.3 | 116 | 104 | 97.9 | 70 | 116 | 64.4 | 90.9 | 70.3 | 63.7 | 29.9 | 170
6 | CC1(C)NC(=O)N(c2ccc([N+](=O)[O-])c(C(F)(F)F)c2)C1=O [nilutamide] + Cc1cc(N2CCOCC2)cc2[nH]c(-c3c(NC[C@@H](O)c4cccc(Cl)c4)cc[nH]c3=O)nc12 [BMS536924] (first compound 1 µM, partner dose 0.2 µM) | 101 | 83 | 65.8 | 179 | 117 | 389 | 115 | 103 | 68.7 | 83.5 | 82.3 | 152 | 259 | 271 | 91.5 | 62.3 | 87.2 | 53.3 | 139
7 | O=C(CCCCCCC(=O)Nc1ccccc1)NO [vorinostat] + Cn1cncc1[C@@](N)(c1ccc(Cl)cc1)c1ccc2c(c1)c(-c1cccc(Cl)c1)cc(=O)n2C [tipifarnib] (first compound 0.08 µM, partner dose 0.01 µM) | 40.6 | 93.9 | 98.3 | 112 | 72.5 | 89.3 | 96.2 | 94.4 | 155 | 94.6 | 111 | 87.5 | 85.4 | 54.8 | 45 | 54 | 109 | 150 | 80.4
8 | Clc1ccc(Nc2nnc(Cc3ccncc3)c3ccccc23)cc1 [vatalanib] + O=C(Nc1cccc(Cl)c1)Nc1ncc(CCNc2ncnc3ccsc23)s1 [SNS314] (first compound 2 µM, partner dose 0.0008 µM) | 76.9 | 22.3 | 193 | 326 | 76.3 | 206 | 130 | 116 | 125 | 90.1 | 148 | 63.9 | 120 | 155 | 192 | 68.5 | 40.3 | 53.2 | 153
